Measured values published in PubChem BioAssay AID2551 (National Center for Advancing Translational Sciences (NCATS), 2010).
The whole screen tested about 310,000 compounds, of which about 17,000 (5.5%) were called active. The shares of active, inactive and inconclusive entries below differ from those in the screen. The call rests on the fitted dose curve; in most records, active means well fitted inhibition curve with a large enough effect; inconclusive means small, poorly fitted or top-dose-only effect, or effect the other way; inactive means no such curve, though single readings can be large or run the other way. Potencies of inconclusive entries are doubtful fits and often do not repeat.

By UniProt entry, the sequences of proteins in these tests, tags left out. Where a name states a change or a piece, a line headed by the entry shows the natural chain unless it says otherwise.
UniProt P51450: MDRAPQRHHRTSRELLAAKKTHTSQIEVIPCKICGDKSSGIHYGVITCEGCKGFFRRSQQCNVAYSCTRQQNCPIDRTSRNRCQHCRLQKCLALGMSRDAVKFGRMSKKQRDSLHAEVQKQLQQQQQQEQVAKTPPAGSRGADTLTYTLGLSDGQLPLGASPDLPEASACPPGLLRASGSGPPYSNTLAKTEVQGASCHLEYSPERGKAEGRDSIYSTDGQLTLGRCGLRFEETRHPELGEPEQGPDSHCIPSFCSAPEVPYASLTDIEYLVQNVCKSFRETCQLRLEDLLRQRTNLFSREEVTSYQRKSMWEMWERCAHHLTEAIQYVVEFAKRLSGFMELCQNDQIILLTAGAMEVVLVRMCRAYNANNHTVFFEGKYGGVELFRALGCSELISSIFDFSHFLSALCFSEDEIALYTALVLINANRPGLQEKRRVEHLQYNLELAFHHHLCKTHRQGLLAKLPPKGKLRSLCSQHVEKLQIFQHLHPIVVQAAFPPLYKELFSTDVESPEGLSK

Target: Nuclear receptor ROR-gamma (Mus musculus) (UniProt P51450)
Test: qHTS for inhibitors of ROR gamma transcriptional activity; further: nearly all actives have a fitted effect of over 60% in size
Conditions: Drosophila S2 Gal4-RORgamma UAS-luciferase reporter, 20 h; activity change, negative = inhibition: at 53.6 µM (top of the series)
From the text: NIH Molecular Libraries Probe Production Network [MLPCN] NIH Chemical Genomics Center [NCGC] MLPCN Grant: R03 DA026211-01 Assay Provider: Dan Littman, New York University Assay Overview: The retinoic acid-related orphan receptor (ROR) gamma is a transcription factor that has a central role in the differentiation of Th17 cells, a subset of T helper cells that secrete the inflammatory cytokines IL-17, IL-17F, and IL-22. Th17 cells have been implicated in graft versus host disease, autoimmune disease and asthma. ROR gamma is induced in naive T helper cells in the presence of TGF-beta combined with IL-6, IL-21, or IL-23, and thereafter directs the expression of the Th17 lineage cytokines. To study the mechanism of action of ROR gamma, an insect cell-based assay was screened. This Drosophila Schneider cell line was stably transfected with two vectors: a gene expressing a fusion of the Gal4 DNA binding domain and ROR gamma transactivation domain under the control of the metallothionine promoter and a Photinus luciferase reporter regulated by the Gal4 binding site enhancer, UAS. […] Small molecule inhibitors of ROR gamma activity are detected by a decrease in luciferase reporter activity.
Assay Protocol Summary: For screening, 600 cells in 4 uL/well were dispensed into white solid 1536-well plates (Grenier) using a solenoid-based dispenser. Following transfer of 23 nL compound or DMSO vehicle by a pin tool, the plates were incubated 1 hr at ambient temperature, and 1 uL/well copper sulfate (700 uM final concentration) was added. The plates were centrifuged 15 s at 1000 RPM and incubated 20 hr at ambient temperature. After addition of 1.5 uL Photinus luciferase detection reagent, the plates were incubated 10 min at ambient temperature and then read by an ViewLux (Perkin Elmer) to detect luminescence. Keywords: NIH Roadmap, MLPCN, MLI, MLSMR, qHTS, NCGC, qHTS, nuclear hormone receptor, retinoic acid-related orphan receptor, ROR gamma
On the % scale 0 is the no-effect control and ±100 the full control effect; potency means the concentration at half of the fitted maximal effect.

Row | SMILES | Potency | activity change, negative = inhibition
1 | COc1cc(OC)cc(C(=O)N[C@H](C(=O)OCC(=O)Nc2ccc(C(C)C)cc2)C(C)C)c1 | inconclusive: 8.91 µM [activator, partial curve] | –
2 | c1ccc2nc(SCc3cn4ccccc4n3)cnc2c1 | inconclusive: 25.1 µM [inhibitor, single point] | –
3 | O=[N+]([O-])/C(=C\Nc1ccccc1)S(=O)(=O)c1ccccc1 | – | inactive: -39.9%
4 | COc1ccc(NC(=O)CC2C(=O)N(Cc3ccco3)C(=S)N2C(C)C)cc1 (configuration not stated) | inconclusive: 14.1 µM [activator, single point] | –
5 | CCOC(=O)c1oc2cc(O)c(CC)cc2c(=O)c1-c1cscn1 | – | inactive: 39%
6 | COc1ccc(C2/C=C\CN(S(=O)(=O)c3ccc(C)cc3)C(Cc3ccccc3)C(=O)N2Cc2ccc(F)cc2)cc1 (configuration not stated) | active: 10 µM | –
7 | COc1ccc2nc(NCCCNC(=O)c3cc(OC)c(OC)c(OC)c3)c(C#N)cc2c1 | – | inactive: -9.12%
8 | Cc1ccn2c(c1)nc(=O)c1cc(S(=O)(=O)N3CCC(C)CC3)ccc12 | – | inactive: -1.5%
9 | Clc1ccccc1/C=N/NC1=Nc2cccc3cccc1c23 | active: 0.282 µM | –
10 | Cc1cc(C)c(NC(=O)/C=C\C(=O)O)c([N+](=O)[O-])c1 | – | inactive: -11.5%
11 | COc1ccc(OC)c(-n2nnnc2SCC(=O)Nc2ccc3c(c2)OCCO3)c1 | inconclusive: 35.5 µM [inhibitor, single point] | –
12 | CCn1c(C(C)NC(=O)c2ccc(Cl)cc2)n[nH]c1=S (configuration not stated) | active: 7.08 µM | –
13 | CCc1nc(SCC(=O)NC2CC2)c2c(C)c(C)sc2n1 | inconclusive: 15.8 µM [inhibitor, single point] | –
14 | Cc1ccc(Sc2ccc(C(=O)NC(C)C)cc2[N+](=O)[O-])cc1 | – | inactive: 24.9%
15 | COc1ccc(-c2nc(-c3ccccc3)no2)c(OC)c1 | inconclusive: 6.31 µM [inhibitor, full curve, poor fit] | –
16 | Cc1ccc(C(=O)N/C(=C\C=C\c2ccccc2)C(=O)NCc2ccco2)cc1 | inconclusive: 8.91 µM [activator, partial curve] | –
17 | Cc1nn(C(=O)c2ccco2)c(C)c1Sc1ccc(Cl)cc1 | – | inactive: 3.13%
18 | NNc1ncnc2sc3c(c12)CCC3 | active: 3.16 µM | –
19 | CCOC(=O)c1ccc(NC(=S)N(CCN2CCCCCC2)Cc2cccs2)cc1 | active: 12.6 µM | –
20 | C/C(=N\Nc1cccc2cccnc12)c1ccc[nH]1 | active: 3.55 µM | –
21 | Cc1ccc(C(=O)COC(=O)c2ccc3c(c2)C(=O)N(c2cccc4ncccc24)C3=O)cc1 | inconclusive: 25.1 µM [inhibitor, single point] | –
22 | CC(c1ccccn1)N(CCN(C)C)C(=S)Nc1ccccc1F (configuration not stated) | – | inactive: -43.2%
23 | Cc1ccc(S(=O)(=O)/C=C2\NC(=O)CS2)cc1 | inconclusive: 11.2 µM [inhibitor, partial curve] | –
24 | COc1ccc(CCNC(=O)C(=O)NCC2OCCN2S(=O)(=O)c2ccc3c(c2)OCCO3)cc1 (configuration not stated) | – | inactive: 1.48%
25 | CCCN(CCC)S(=O)(=O)c1ccc(C(=O)N2CCCc3ccccc32)cc1 | inconclusive: 3.16 µM [inhibitor, single point] | –
26 | Cc1nn(Cc2ccccc2)c(C)c1/C=N/NC(=O)c1ccccc1O | active: 11.2 µM | –

Row | SMILES | Potency | activity change, negative = inhibition
27 | COc1ccccc1NC(=O)C(=O)N/N=C(\C)CC(=O)Nc1ccc(OCc2ccccc2)cc1 | – | inactive: -40.4%
28 | CCOC(=O)c1c(NC(=O)CSc2nnc(-c3ccco3)o2)sc(C)c1C | – | inactive: 17.7%
29 | CCOC(=O)CN1C(=O)SC(Nc2ccc(C)cc2)C1=O (configuration not stated) | – | inactive: 18.7%
30 | COc1ccccc1NC(=O)Cn1c(=O)n(C)c(=O)c2sc3c(c21)COC(C)(C)C3 | inconclusive: 6.31 µM [inhibitor, single point] | –
31 | COc1ccc(-c2[nH]ncc2Oc2ccccc2OC)c(O)c1 | active: 11.2 µM | –
32 | Cn1cc(C=C2C(=O)OC3(CCCCC3)OC2=O)c2ccccc21 | inconclusive: 35.5 µM [activator, single point] | –
33 | COc1ccccc1C(=O)NNC(=O)C(=O)NC(C)C | inconclusive: 11.2 µM [inhibitor, partial curve] | –
34 | CCn1c(SCc2ccccc2)nnc1-c1cccs1 | inconclusive: 35.5 µM [activator, single point] | –
35 | O=C1C(Nc2cccc(O)c2)=C(N2CCCCC2)C(=O)c2ccccc21 | – | inactive: -36.9%
36 | CN(C)CCC=C1c2ccccc2C(C)(C)c2ccccc21 | – | inactive: -26.2%
37 | CCC(=O)c1ccc(OCC(O)Cn2nnc3ccccc32)cc1 (configuration not stated) | inconclusive: 2 µM [activator, full curve] | –
38 | Cc1ccc(-n2c(=O)c3c4c(sc3n3c(=S)[nH]nc23)CCC4)cc1 | active: 11.2 µM | –
39 | COc1cc2ccccc2cc1C(=O)Nc1ccc(C)cc1 | inconclusive: 12.6 µM [activator, partial curve] | –
40 | O=C(c1ccco1)n1nc(NCc2ccccc2)nc1NCc1ccccc1 | inconclusive: 0.316 µM [activator, full curve, poor fit] | –
41 | Cc1nnc(NC(=O)C(C)Sc2nncn2C)s1 (configuration not stated) | – | inactive: -0.401%
42 | CNC(=S)Nc1cccc(-c2cnc3ccccc3n2)c1 | inconclusive: 17.8 µM [inhibitor, single point] | –
43 | CC1(C)CC(=O)C2=C(C1)N(c1ccc(F)cc1)C(=O)C2(O)C(F)(F)F (configuration not stated) | inconclusive: 11.2 µM [activator, partial curve] | –
44 | CCOc1ncccc1C(=O)NCCN1C(=O)S/C(=C/c2cccs2)C1=O | inconclusive: 20 µM [activator, single point] | –
45 | C/C(CCc1ccc2c(c1)OCO2)=N\N=C1\NC(=O)CC(C(=O)Nc2ccc(Cl)cc2)S1 (configuration not stated) | inconclusive: 35.5 µM [inhibitor, single point] | –
46 | Cc1ccc(NC(=O)CCn2c(=O)[nH]c3ccsc3c2=O)cc1C | inconclusive: 5.62 µM [activator, full curve] | –
47 | C=CCc1cccc(/C=N/NC(=O)CNc2ccccc2OC)c1O | active: 1.26 µM | –
48 | COCCn1c(CN2CCN(C(c3ccccc3)c3ccccc3)CC2)nc2c1c(=O)n(C)c(=O)n2C | – | inactive: 12.3%
49 | COc1ccc(-c2nnc3sc(-c4ccccc4OC)nn23)cc1 | – | inactive: -5.7% [at 10 µM]
50 | O=C(NCc1ccccc1)C1=C[C@@H](C2CCCCC2)C[C@@H](OCc2ccc(CO)cc2)O1 | inconclusive: 11.2 µM [activator, partial curve] | –
51 | C=CCNC(=S)N/N=C/c1ccc(C)c([N+](=O)[O-])c1 | active: 1.12 µM | –
52 | NC(=O)c1nsc(C(=O)N(c2ccccc2F)C(C(=O)NCc2ccccc2)c2ccc(O)cc2)c1N (configuration not stated) | – | inactive: 26.3%

Copied from the list:
activity change, negative = inhibition, CCOC(=O)c1c(NC(=O)CSc2nnc(-c3ccco3)o2)sc(C)c1C reads inactive: 17.7%
Potency, COc1ccc(-c2[nH]ncc2Oc2ccccc2OC)c(O)c1 reads active: 11.2 µM
Potency, CCC(=O)c1ccc(OCC(O)Cn2nnc3ccccc32)cc1 (configuration not stated) reads inconclusive: 2 µM [activator, full curve]

Additional entries:

Row | SMILES | Potency | activity change, negative = inhibition
53 | Cc1c(N=Cc2cc(Br)cc(Br)c2O)cccc1C(=O)O | inconclusive: 14.1 µM [inhibitor, partial curve] | –
54 | COc1ccccc1-c1c(C)[nH]n2c(=O)c(Cc3ccccc3)c(C)nc12 | active: 14.1 µM | –
55 | CN1CCC/C1=C/C=C1\SC(=S)NC1=O | – | inactive: -13.6%
56 | Cc1ccccc1NC(=O)CCC(=O)OCC(=O)c1ccc(-c2ccccc2)cc1 | active: 7.94 µM | –
57 | Cc1cc(C)cc(-n2ncc3c2CCCC3NC(=O)c2cc(C)n(C)n2)c1 (configuration not stated) | – | inactive: 5.51%
58 | O=C(CN1CCc2ccccc21)NCc1ccccc1Cl | inconclusive: 31.6 µM [activator, single point] | –
59 | CC1CC(C)(C)NC(=S)N1CCC(=O)NCc1ccc(F)cc1 (configuration not stated) | inconclusive: 12.6 µM [inhibitor, single point] | –
60 | COc1cc(OC)cc(C(=O)Nc2cccc(C(C)=O)c2)c1 | inconclusive: 5.62 µM [inhibitor, single point] | –
61 | COc1ccccc1OCc1ccc(C(=O)NCc2ccco2)o1 | inconclusive: 5.62 µM [activator, single point] | –
62 | Cc1ccc(NC(=O)CSc2nccn2Cc2ccco2)c(C)c1 | inconclusive: 7.94 µM [inhibitor, partial curve] | –
63 | O=C(C#Cc1ccccc1)Nc1ccc(F)cc1 | – | inactive: 23.3%
64 | CCCCOC(=O)C1=C(N)N2C(=O)C(C)SC2=C(C(=O)OCC)C1c1ccc(O)c(OC)c1 (configuration not stated) | inconclusive: 35.5 µM [inhibitor, single point] | –
65 | CCCCCCOC(=O)c1ccc(OC(=O)c2cccnc2)cc1 | – | inactive: 35.7%
66 | Cn1c(CNc2cccc(C(F)(F)F)c2)n[nH]c1=S | inconclusive: 8.91 µM [inhibitor, partial curve, poor fit] | –
67 | O=C(O)c1ccccc1SC1CC(=O)N(c2ccc3c(c2)OCO3)C1=O (configuration not stated) | active: 3.16 µM | –
68 | S=C(Nc1ccc2nc(-c3ccccn3)c(-c3ccccn3)nc2c1)N1CCCCCC1 | inconclusive: 7.08 µM [inhibitor, full curve] | –
69 | CCOC(=O)C1CCN(CC(=O)c2c(C)n(C)c3ccc(OC)cc23)CC1 | – | inactive: -0.774%
70 | CCOc1ccc(N(CC(=O)N/N=C/c2ccccn2)S(=O)(=O)c2ccc(Cl)cc2)cc1 | active: 10 µM | –
71 | Cc1ccc(OCC(=O)Nc2ccccc2Sc2ccc(Cl)cc2)c([N+](=O)[O-])n1 | inconclusive: 5.01 µM [activator, partial curve] | –
72 | CCOC(=O)C(=Cc1ccc(Br)cc1)C(=O)OCC | active: 14.1 µM | –
73 | Cc1oc2c(cc(NS(=O)(=O)c3cccs3)c3ccccc32)c1C(=O)OC(C)C | inconclusive: 35.5 µM [activator, single point] | –
74 | Cc1nn(C)c(C)c1CN(C)C(=O)c1nn2c(c1Br)NC(c1cccs1)CC2C(F)(F)F (configuration not stated) | – | inactive: 14.9%
75 | COc1ccccc1/C=N/Nc1nncc2ccccc12 | active: 2 µM | –
76 | Cc1cccc(C)c1-n1c(C)cc(/C=N\Nc2ccc([N+](=O)[O-])cn2)c1C | – | inactive: -25%
77 | O=C(c1ccc(N2CCCCC2)c([N+](=O)[O-])c1)N1CCN(c2ccccn2)CC1 | inconclusive: 7.08 µM [activator, partial curve] | –
